Results deposited as PubChem BioAssay AID1259425 (University of Nebraska Medical Center, 2018)
Here is a random part of about 14,000 reagents tested. Not all columns of the deposit are shown. The record does not give: the time to read-out.

Purpose: 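Find knockdowns that reproduce the gene expression pattern seen when KSR1 is lost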 (primary screen)
Cells: HCT116 human colon cancer cells
Reagent: siRNA pool against human genes, 50 nM siRNA
Detection: 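After 50 nM siRNA pool, branched-DNA assay measures six marker transcripts per well, minus blank, normalised to the geometric mean of two housekeeping transcripts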
Direction: BNIP3L mRNA: higher = more BNIP3L transcript after knockdown

PIP5K1A (phosphatidylinositol-4-phosphate 5-kinase type 1 alpha) → BNIP3L mRNA, set 1 = 0.156
PDHA1 (pyruvate dehydrogenase E1 subunit alpha 1) → BNIP3L mRNA, set 1 = 0.0496
FBXO25 (F-box protein 25) → BNIP3L mRNA, set 1 = 0.0688
CATSPER2 (cation channel sperm associated 2) → BNIP3L mRNA, set 1 = 0.129
IFI44L (interferon induced protein 44 like) → BNIP3L mRNA, set 1 = 0.247
AGBL5 (AGBL carboxypeptidase 5) → BNIP3L mRNA, set 1 = 0.187
ATP5MC3 (ATP synthase membrane subunit c locus 3) → BNIP3L mRNA, set 1 = 0.094
RBX1 (ring-box 1) → BNIP3L mRNA, set 1 = 0.257
ABCA3 (ATP binding cassette subfamily A member 3) → BNIP3L mRNA, set 1 = 0.129
ACLY (ATP citrate lyase) → BNIP3L mRNA, set 1 = 0.0501
HSD3B1 → BNIP3L mRNA, set 1 = 0.1
EIF3K (eukaryotic translation initiation factor 3 subunit K) → BNIP3L mRNA, set 1 = 0.0447
MRPL48 (mitochondrial ribosomal protein L48) → BNIP3L mRNA, set 1 = 0.0555
RAMAC (RNA guanine-7 methyltransferase activating subunit) → BNIP3L mRNA, set 1 = 0.101
LMAN2 (lectin, mannose binding 2) → BNIP3L mRNA, set 1 = 0.127
IFNA2 (interferon alpha 2) → BNIP3L mRNA, set 1 = 0.0598
CITED1 (Cbp/p300 interacting transactivator with ED-rich tail 1) → BNIP3L mRNA, set 1 = 0.129
MYL1 (myosin light chain 1) → BNIP3L mRNA, set 1 = 0.0928
AMBN (ameloblastin) → BNIP3L mRNA, set 1 = 0.0619
RGL2 (ral guanine nucleotide dissociation stimulator like 2) → BNIP3L mRNA, set 1 = 0.133
TMX1 (thioredoxin related transmembrane protein 1) → BNIP3L mRNA, set 1 = 0.128
E2F6 (E2F transcription factor 6) → BNIP3L mRNA, set 1 = 0.139
RMDN3 (regulator of microtubule dynamics 3) → BNIP3L mRNA, set 1 = 0.0992
GYG1 (glycogenin 1) → BNIP3L mRNA, set 1 = 0.0727
CEP19 (centrosomal protein 19) → BNIP3L mRNA, set 1 = 0.0666
CALCRL (calcitonin receptor like receptor) → BNIP3L mRNA, set 1 = 0.137
CCL14 (C-C motif chemokine ligand 14) → BNIP3L mRNA, set 1 = 0.0551
INTS9 (integrator complex subunit 9) → BNIP3L mRNA, set 1 = 0.0921

2 entries already listed, ordered by “BNIP3L mRNA, set 1”, highest first:
AGBL5 (AGBL carboxypeptidase 5) → BNIP3L mRNA, set 1 = 0.187
ATP5MC3 (ATP synthase membrane subunit c locus 3) → BNIP3L mRNA, set 1 = 0.094
